According to the supplement of paper PMC8104966:
The list shows a part of the results. Repeats in this data set agree poorly, so a single value says little.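 U2OS cells carrying ACE2 were mixed with U2OS cells carrying full-length spike, and fusion was scored by imaging as the share of nuclei showing both cell types' fluorescent markers. A compound counts as an inhibitory hit when it is non-toxic and its fusion z-score falls below -3, meaning more than three standard deviations below the plate's DMSO wells.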

The compounds below were run on U2OS ACE2 x SARS-CoV-2 spike co-culture (assay: cell-cell fusion (fraction fused) z-score vs plate DMSO control; higher = more fusion). Settings: 30 µM; 5 h; toxicity class: non-toxic, passed QC.

SMILES | cell-cell fusion (z-score)
COc1cc2c(Nc3ccc(NC(=O)c4ccccc4)cc3)ncnc2cc1OCCCN1CCOCC1 | inactive: 0.444
O=[N+]([O-])c1ccc(O)c2ncccc12 | inactive: 1.44
CC1=C(C/C=C(\C)CCC[C@H](C)CCC[C@H](C)CCCC(C)C)C(=O)c2ccccc2C1=O | inactive: 1.79
O=C(NCCS(=O)(=O)c1ccc(C(F)(F)F)cn1)c1ccc(Cl)cc1 | inactive: 1.54
Cc1cc(C2CCCCC2)n(O)c(=O)c1 [Ciclopirox] | inactive: -0.0889
CCCC(=O)O[C@]1(C(=O)CO)CCC2[C@@H]3CCC4=CC(=O)CC[C@]4(C)C3[C@@H](O)C[C@@]21C (some centres undefined) | inactive: 4.19
Nc1nc(Cl)nc2c1ncn2[C@@H]1O[C@H](CO)[C@@H](O)[C@@H]1F [Clofarabine] | inactive: 1.33
O=C1C(O)=C([C@H]2CC[C@H](c3ccc(Cl)cc3)CC2)C(=O)c2ccccc21 [Atovaquone] | inactive: 1.32
COCCCC/C(=N\OCCN)c1ccc(C(F)(F)F)cc1.O=C(O)/C=C\C(=O)O [Fluvoxamine maleate] | inactive: -0.432
C[C@H](O)[C@H](O)[C@H]1CNc2nc(N)[nH]c(=O)c2N1.Cl.Cl [Sapropterin Hydrochloride] | inactive: 0.627
COc1cccc(OC)c1OCCNCC1CSc2ccccc2O1.Cl (centres undefined) [Benoxathian hydrochloride] | inactive: 0.313
CCCN[C@H]1CCc2nc(N)sc2C1.Cl.Cl [Pramipexole dihydrochloride] | inactive: -1.22
CN(C)CCOC(=O)C(c1ccccc1)C1(O)CCCC1.Cl (centres undefined) | inactive: 1.61
C[N+]1(CCCCC[N+]2(C)CCCC2)CCCC1.O=C([O-])[C@H](O)[C@@H](O)C(=O)O.O=C([O-])[C@H](O)[C@@H](O)C(=O)O [Pentolinium di[L(+)-tartrate]] | inactive: 1.91
CCN(CC)CCOC(=O)C(Cc1cccc2ccccc12)CC1CCCO1.O=C(O)C(=O)O (centres undefined) | inactive: 3.38
CN(C)c1cc(NC(=O)CNC(C)(C)C)c(O)c2c1C[C@H]1C[C@H]3[C@H](N(C)C)C(O)=C(C(N)=O)C(=O)[C@@]3(O)C(O)=C1C2=O [Tigecycline] | inactive: 4.14
CS(=O)(=O)O.Cc1ccc(N(CC2=NCCN2)c2cccc(O)c2)cc1 [Phentolamine mesylate] | inactive: 3.29
C[N+](C)(C)CCOC(N)=O.[Cl-] [Carbachol] | inactive: 1.55
C[N+](C)(C)CCOC(N)=O.[Cl-] | inactive: 0.984

4 entries from above, as a markdown table:

| SMILES | cell-cell fusion (z-score) |
| --- | --- |
| C[N+]1(CCCCC[N+]2(C)CCCC2)CCCC1.O=C([O-])[C@H](O)[C@@H](O)C(=O)O.O=C([O-])[C@H](O)[C@@H](O)C(=O)O [Pentolinium di[L(+)-tartrate]] | inactive: 1.91 |
| CCN(CC)CCOC(=O)C(Cc1cccc2ccccc12)CC1CCCO1.O=C(O)C(=O)O (centres undefined) | inactive: 3.38 |
| CN(C)c1cc(NC(=O)CNC(C)(C)C)c(O)c2c1C[C@H]1C[C@H]3[C@H](N(C)C)C(O)=C(C(N)=O)C(=O)[C@@]3(O)C(O)=C1C2=O [Tigecycline] | inactive: 4.14 |
| CS(=O)(=O)O.Cc1ccc(N(CC2=NCCN2)c2cccc(O)c2)cc1 [Phentolamine mesylate] | inactive: 3.29 |
